Laboratory results as given in paper PMC8918779.
These are yes or no findings as the source states them, for the method shown. In cells and extracts the contact can be indirect. Some entries that bind do so weakly or less than the wild type.

By UniProt entry, the sequences of proteins in these tests, tags left out.
UniProt P53350: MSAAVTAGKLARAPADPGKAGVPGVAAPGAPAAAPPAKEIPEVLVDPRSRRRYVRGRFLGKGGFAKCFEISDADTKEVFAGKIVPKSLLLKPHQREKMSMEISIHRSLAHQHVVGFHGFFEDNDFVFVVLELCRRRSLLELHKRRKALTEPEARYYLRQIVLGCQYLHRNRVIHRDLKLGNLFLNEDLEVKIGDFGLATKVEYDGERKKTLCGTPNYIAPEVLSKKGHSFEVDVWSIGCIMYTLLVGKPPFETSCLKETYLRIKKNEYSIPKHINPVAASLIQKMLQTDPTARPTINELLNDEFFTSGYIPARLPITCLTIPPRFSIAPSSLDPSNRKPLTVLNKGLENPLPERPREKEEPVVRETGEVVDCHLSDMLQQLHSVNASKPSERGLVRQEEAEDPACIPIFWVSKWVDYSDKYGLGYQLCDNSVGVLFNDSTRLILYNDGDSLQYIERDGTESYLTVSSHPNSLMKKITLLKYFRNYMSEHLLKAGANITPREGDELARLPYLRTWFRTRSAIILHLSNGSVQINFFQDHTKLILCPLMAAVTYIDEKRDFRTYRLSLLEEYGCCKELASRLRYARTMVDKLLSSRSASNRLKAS
UniProt Q00536: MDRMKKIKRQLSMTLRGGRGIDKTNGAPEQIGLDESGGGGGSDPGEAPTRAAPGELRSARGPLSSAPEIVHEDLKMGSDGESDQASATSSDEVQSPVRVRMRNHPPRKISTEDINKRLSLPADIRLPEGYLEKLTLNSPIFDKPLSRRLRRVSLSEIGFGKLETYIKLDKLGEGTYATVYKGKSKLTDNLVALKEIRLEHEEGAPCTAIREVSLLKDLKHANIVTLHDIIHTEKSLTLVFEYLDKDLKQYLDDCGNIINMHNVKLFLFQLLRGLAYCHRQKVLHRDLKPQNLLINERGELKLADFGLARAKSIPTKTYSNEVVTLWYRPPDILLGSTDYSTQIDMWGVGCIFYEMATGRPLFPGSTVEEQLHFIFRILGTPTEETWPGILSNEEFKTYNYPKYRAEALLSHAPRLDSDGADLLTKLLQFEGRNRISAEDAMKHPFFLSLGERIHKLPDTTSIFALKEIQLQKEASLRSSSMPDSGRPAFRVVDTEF

Target: HA-tagged wild-type PLK1 (UniProt P53350)
Assay: co-IP; HA-tagged PLK1 (WT, KD or PBD mutant; 1 µg each) transiently transfected in U2OS; PLK1 pulled down by anti-HA antibody on protein A or G sepharose, overnight at 4°C; western blot for endogenous PCTAIRE1

binding: binds
Substance: PCTAIRE1 (from UniProt Q00536 1-496)
